The list shows a part of the results. Plates or batches differ in their baseline, so values are only roughly comparable.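 Hits were defined as a z-score below −3.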
biological target: T1, YTHDF1 YTH domain (aa 365-554) (UniProt Q9BYJ9); assay: tryptophan fluorescence intensity z-score (mean); higher = higher fluorescence, less quenching (negative = binding / quenching); details: 10 µM
T1 sequence (whole entry): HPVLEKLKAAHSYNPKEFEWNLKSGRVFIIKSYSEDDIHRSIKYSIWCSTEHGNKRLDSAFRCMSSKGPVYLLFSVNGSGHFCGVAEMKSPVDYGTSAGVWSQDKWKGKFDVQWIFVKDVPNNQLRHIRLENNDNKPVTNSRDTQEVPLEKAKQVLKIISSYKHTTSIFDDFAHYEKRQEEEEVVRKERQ

Compound	tryptophan fluorescence intensity z-score
C[N+]12CC[C@@]34c5ccccc5N5C(=O)C[C@@H]6OCC=C(C1)[C@H](C[C@@H]32)[C@@H]6[C@H]54 (some centres not stated) (plate: M 21-22)	inactive: 0.506
COc1ccc2c(c1OC)C(=O)O[C@@H]2[C@H]1c2cc3c(cc2CCN1C)OCO3 (plate: M 5-6)	inactive: -0.414
O=C(NC(=O)c1c(F)cccc1F)Nc1ccc(Cl)cc1 (plate: M 23-24)	inactive: 0.0223
C[C@@H]1C[C@@H]([C@H](O)CC2CC(=O)NC(=O)C2)C(=O)[C@@H](C)C1 (plate: M 7-8)	inactive: 0.484
COc1cc2c(cc1OC)[C@@H]1C(=O)c3ccc4c(c3O[C@@H]1CO2)CC(C(C)C)O4 (some centres not stated) (plate: M 15-16)	inactive: -0.0203
COc1ccc2c(c1OC)C(=O)O[C@H]2[C@H]1c2cc3c(cc2CCN1C)OCO3 (plate: M 17-18)	inactive: 0.426
CC[C@@H](CO)NC(=O)[C@@H]1C=C2c3cccc4[nH]cc(c34)C[C@H]2N(C)C1 (plate: M 3-4)	inactive: -0.348
CCCCOC(=O)c1ccccc1C(=O)OCCCC (plate: M 1-2)	inactive: 0.558
C=CCc1cc(OC)c2c(c1OC)OCO2 (plate: M 21-22)	inactive: -0.139
C[N+]1(C)CCc2cc3c(cc2[C@H]1[C@@H]1OC(=O)c2c1ccc1c2OCO1)OCO3 (plate: M 23-24)	inactive: 0.0161
CCC(C)C(=O)OC1CC2(C)C(c3ccoc3)OC(=O)CC23OC2(C)OC34C(OC(=O)C(C)C)C3(O)C(OC(=O)C5(C)OC5C)C5(C)CC3(O)C(C)(C5CC(=O)OC)C14O2 (configuration not stated) (plate: M 13-14)	inactive: 0.581
c1cncc([C@@H]2CCCCN2)c1 (plate: M 17-18)	inactive: 0.121
CC(C)(O)[C@@H]1[C@H]2OC(=O)[C@@H]1[C@]1(O)C[C@H]3O[C@]34C(=O)O[C@H]2[C@]14C (plate: M 13-14)	inactive: 0.263
CC(C)(C#N)O[C@@H]1O[C@H](CO)[C@@H](O)[C@H](O)[C@H]1O (plate: M 19-20)	inactive: 0.486
CC(=O)O[C@H]1C(=O)[C@@]2(C)[C@H]([C@H](OC(=O)c3ccccc3)[C@]3(O)C[C@H](O)C(C)=C1C3(C)C)[C@]1(OC(C)=O)CO[C@@H]1C[C@@H]2O (plate: M 19-20)	inactive: 0.0212
C=C(C)[C@H]1Cc2c(ccc3c(=O)c4c(oc23)COc2cc(OC)c(OC)cc2-4)O1 (plate: M 15-16)	inactive: 0.172
O=c1[nH]oc2c1CCNC2 (plate: M 23-24)	inactive: 0.213
CC(N)C(O)c1ccccc1 (configuration not stated) (plate: M 5-6)	inactive: 0.0803
CC1(C)C(=O)[C@@H]2O[C@@H]2[C@@]2(C)C1C[C@@H](O)[C@]1(C)C2CC[C@@]2(C)[C@H](c3ccoc3)OC(=O)C3OC321 (stereo partly drawn) [1,2alpha-EPOXYDEACETOXYDIHYDROGEDUNIN] (plate: M 13-14)	inactive: 0.145
CC1=CCCC2C1(C)CCC(C)C2(C)CC/C(C)=C/Cn1c[n+](C)c2c(N)ncnc21 (configuration not stated) [AGELASINE(stereochemistryofditerpeneunknown)] (plate: M 17-18)	inactive: 0.619
O=C(CCCN1CCC2(CC1)C(=O)NCN2c1ccccc1)c1ccc(F)cc1 (plate: M 7-8)	inactive: -0.129

Compound	tryptophan fluorescence intensity z-score
O=[N+]([O-])O[C@H]1CO[C@H]2[C@@H]1OC[C@H]2O[N+](=O)[O-] (plate: M 3-4)	inactive: -0.175
COc1cc2ccc(=O)oc2c2ccoc12 (plate: M 15-16)	inactive: 0.125
NCC1(CC(=O)O)CCCCC1 (plate: M 11-12)	inactive: 0.588
O=c1cccc2n1C[C@@H]1CNC[C@H]2C1 (plate: M 19-20)	inactive: 0.0836
C=CCc1ccc(OC)cc1 (plate: M 21-22)	inactive: 0.177
CC[C@@H](C)C(=O)O[C@H]1[C@H](O)[C@H]2[C@@H](CN3C[C@@H](C)CC[C@H]3[C@@]2(C)O)[C@@H]2C[C@]34O[C@]5(O)[C@@H](OC(=O)[C@@](C)(O)CC)CC[C@@]3(C)[C@@H]5[C@@H](OC(C)=O)[C@@H](OC(C)=O)[C@H]4[C@@]21O (plate: M 17-18)	inactive: 0.526
CCOC(=O)c1cncn1[C@H](C)c1ccccc1 (plate: M 11-12)	inactive: -0.251
N[C@H](CO)Cc1ccccc1 (plate: M 23-24)	inactive: 0.405
Cc1nccc2c1[nH]c1cc(O)ccc12 (plate: M 19-20)	inactive: 0.203
CC(C)c1cc2c(c(O)c1O)[C@@]1(C(=O)O)CCCC(C)(C)[C@@H]1CC2 (plate: M 23-24)	inactive: 0.0209
O=C(O)CC[N+](=O)[O-] [BOVINOCIDIN(3-nitropropionicacid)] (plate: M 19-20)	inactive: 0.92
Oc1ccc2c3c1O[C@H]1[C@@H](O)CC[C@@]4(O)[C@@H](C2)N(CC2CCC2)CC[C@]314 (plate: M 7-8)	inactive: 0.819
C/C=C/c1ccc2c(c1)OCO2 (plate: M 17-18)	inactive: 0.737
CN1CCc2cc3c(cc2[C@H]1[C@@H]1OC(=O)c2c1ccc1c2OCO1)OCO3 (plate: M 17-18)	inactive: -0.205
COc1cc2c(c(OC)c1OC)-c1ccc(OC)c(=O)cc1[C@@H](NC(C)=O)CC2 (plate: M 1-2)	inactive: -0.0656
N#C[C@H](O[C@@H]1O[C@H](CO[C@@H]2O[C@H](CO)[C@@H](O)[C@H](O)[C@H]2O)[C@@H](O)[C@H](O)[C@H]1O)c1ccccc1 (plate: M 19-20)	inactive: 0.511
CC[C@@H](CO)NC(=O)[C@@H]1C=C2c3cccc4c3c(cn4C)C[C@H]2N(C)C1 (plate: M 11-12)	inactive: -1.17
CC1C=CC=CCCC=CC=CC=CC=CC(OC2OC(C)C(O)C(N)C2O)CC2OC(O)(CC(O)C(O)CCC(O)CC(O)CC(O)CC(=O)OC(C)C(C)C1O)CC(O)C2C(=O)O (configuration not stated) (plate: M 3-4)	inactive: -0.124
C[C@@H]1C[C@H](O)[C@@]2(O)[C@]13CC(=O)OC[C@@]2(C)[C@@](C)(O)C(=O)C3 (plate: M 15-16)	inactive: 0.754
CC(=O)O[C@H]1CC[C@@]2(C)[C@H](CC[C@@H]3[C@@H]2CC[C@]2(C)[C@@H](C4=CC(=O)OC4)[C@@H](OC(C)=O)C[C@]32O)C1 (plate: M 13-14)	inactive: 0.354
CC[N+]1(C)CCCC(OC(=O)C(O)(c2ccccc2)c2ccccc2)C1 (configuration not stated) (plate: M 21-22)	inactive: 0.519

4 compounds drawn at random from the list so far, as already listed:
Compound	tryptophan fluorescence intensity z-score
NCC1(CC(=O)O)CCCCC1 (plate: M 11-12)	inactive: 0.588
CC(C)c1cc2c(c(O)c1O)[C@@]1(C(=O)O)CCCC(C)(C)[C@@H]1CC2 (plate: M 23-24)	inactive: 0.0209
Oc1ccc2c3c1O[C@H]1[C@@H](O)CC[C@@]4(O)[C@@H](C2)N(CC2CCC2)CC[C@]314 (plate: M 7-8)	inactive: 0.819
CC1C=CC=CCCC=CC=CC=CC=CC(OC2OC(C)C(O)C(N)C2O)CC2OC(O)(CC(O)C(O)CCC(O)CC(O)CC(O)CC(=O)OC(C)C(C)C1O)CC(O)C2C(=O)O (configuration not stated) (plate: M 3-4)	inactive: -0.124

Further results follow:

Compound	tryptophan fluorescence intensity z-score
CC1=C2C(=CO[C@H](C)[C@H]2C)C(O)=C(C(=O)O)C1=O (plate: M 15-16)	inactive: 0.361
N#Cc1c(Cl)c(Cl)c(Cl)c(C#N)c1Cl (plate: M 23-24)	inactive: 0.586
COc1cc2c3cc1Oc1c(OC)c(OC)cc4c1[C@@H](Cc1cccc(c1)Oc1ccc(c(O)c1)C[C@@H]3N(C)CC2)N(C)CC4 (plate: M 17-18)	inactive: -0.0885
O=c1ccc2cc(O[C@@H]3O[C@H](CO)[C@@H](O)[C@H](O)[C@H]3O)c(O)cc2o1 (plate: M 17-18)	inactive: -0.115
NCC(O)c1ccc(O)cc1 (configuration not stated) (plate: M 17-18)	inactive: 0.558
Cc1ccc(/N=C/N(C)/C=N/c2ccc(C)cc2C)c(C)c1 (plate: M 9-10)	inactive: 0.13
C[C@]12CC[C@H]3[C@@H](CCC4=CC(=O)CC[C@@]43C)[C@@H]1CC[C@@H]2O (plate: M 1-2)	inactive: 0.355
C[C@]12CCC(=O)C[C@@H]1CC[C@@H]1[C@@H]2CC[C@]2(C)C(=O)CC[C@@H]12 [5alpha-ANDROSTAN-3,17-DIONE] (plate: M 15-16)	inactive: 0.254
C[C@]12CC[C@H](O)C[C@H]1CC[C@@H]1[C@@H]2CC[C@]2(C)[C@@H](C3=CC(=O)OC3)[C@@H](O)C[C@]12O (plate: M 21-22)	inactive: 0.258
CC(=O)O[C@H]1C[C@@H]2CC[C@@H]3[C@H](CC[C@@]4(C)[C@H]3C[C@H]([N+]3(C)CCCCC3)[C@@H]4OC(C)=O)[C@@]2(C)C[C@@H]1[N+]1(C)CCCCC1 (plate: M 11-12)	inactive: -0.515
CCSCC[C@H](N)C(=O)O (plate: M 23-24)	inactive: 0.384
COc1c2c(cc3c1OCO3)CCN(C)C2 (plate: M 17-18)	inactive: 0.397
C[C@@H]1C(=O)O[C@H]2[C@H]1CC[C@@]1(C)C=CC(=O)[C@@]3(C)O[C@@]213 [EPOXY(4,5alpha)-4,5-DIHYDROSANTONIN] (plate: M 15-16)	inactive: 0.38
COP(=O)(OC)C(O)C(Cl)(Cl)Cl (configuration not stated) (plate: M 11-12)	inactive: -0.624
CNC1CC(N)C(O)C(OC2OC(CO)C(O)C3OC4(OC(C(N)CO)C(O)C(O)C4O)OC23)C1O (configuration not stated) (plate: M 23-24)	inactive: 0.408
C=CCc1ccc2c(c1)OCO2 (plate: M 19-20)	inactive: 0.188
CCCC(C)C1(CC)C(=O)NC(=O)NC1=O (configuration not stated) (plate: M 13-14)	inactive: 0.79
COP(=O)(OC)OC=C(Cl)Cl (plate: M 1-2)	inactive: 0.718
S=C=NCc1ccccc1 (plate: M 19-20)	inactive: 0.159
C[C@]12CCC(=O)C=C1C=C[C@@H]1[C@@H]2CC[C@@]2(C)[C@H]1CC[C@@]2(O)CCC(=O)O (plate: M 5-6)	inactive: 0.0156

Source: the supplement of paper PMC9578143, “Small-Molecule Ebselen Binds to YTHDF Proteins Interfering with the Recognition of N^6-Methyladenosine-Modified RNAs” (ACS Pharmacology & Translational Science, 2022)
